Our source for the binding values is publication PMC8096781.

The target of this test is T1, Flag-FOXM1D (overexpressed in HeLa cells) (UniProt Q08050).
T1 sequence: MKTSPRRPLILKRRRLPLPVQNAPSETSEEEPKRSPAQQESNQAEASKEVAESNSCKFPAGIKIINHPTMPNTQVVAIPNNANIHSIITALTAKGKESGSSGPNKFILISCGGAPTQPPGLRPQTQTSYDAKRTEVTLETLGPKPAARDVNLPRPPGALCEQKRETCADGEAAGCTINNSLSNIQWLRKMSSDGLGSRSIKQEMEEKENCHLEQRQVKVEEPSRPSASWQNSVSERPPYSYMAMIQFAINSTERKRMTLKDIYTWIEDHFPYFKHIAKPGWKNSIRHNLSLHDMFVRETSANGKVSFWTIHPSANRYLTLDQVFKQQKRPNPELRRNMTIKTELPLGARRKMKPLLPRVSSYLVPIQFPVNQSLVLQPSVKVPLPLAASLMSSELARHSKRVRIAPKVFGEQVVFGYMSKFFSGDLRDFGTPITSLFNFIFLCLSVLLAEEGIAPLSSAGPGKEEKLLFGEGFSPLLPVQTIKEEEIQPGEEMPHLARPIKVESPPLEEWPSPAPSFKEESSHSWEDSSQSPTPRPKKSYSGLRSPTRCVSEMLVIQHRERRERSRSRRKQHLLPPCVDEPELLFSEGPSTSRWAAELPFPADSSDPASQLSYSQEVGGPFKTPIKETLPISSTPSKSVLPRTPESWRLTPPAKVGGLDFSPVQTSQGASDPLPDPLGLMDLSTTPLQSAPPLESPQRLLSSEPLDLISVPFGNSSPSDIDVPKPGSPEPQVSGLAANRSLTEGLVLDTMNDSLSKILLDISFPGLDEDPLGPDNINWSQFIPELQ
Kind of test: affinity purification with mass spectrometry; Co-IP with rabbit anti-Flag antibody or rabbit control IgG isotype antibody from HeLa cells overexpressing Flag-FOXM1D, then LC-MS/MS.

No constants are given. Whether binding was seen depends on the method and setting. Binding seen in cells or lysates may run through a third protein. These calls come from enrichment with a bait or labelling near it, and not all partners need be listed. Sequences can lack the tags named with a protein.

B1: endogenous VPS11 (HeLa cells) (protein, UniProt Q9H270 1-941)
chain: MAAYLQWRRFVFFDKELVKEPLSNDGAAPGATPASGSAASKFLCLPPGITVCDSGRGSLVFGDMEGQIWFLPRSLQLTGFQAYKLRVTHLYQLKQHNILASVGEDEEGINPLVKIWNLEKRDGGNPLCTRIFPAIPGTEPTVVSCLTVHENLNFMAIGFTDGSVTLNKGDITRDRHSKTQILHKGNYPVTGLAFRQAGKTTHLFVVTTENVQSYIVSGKDYPRVELDTHGCGLRCSALSDPSQDLQFIVAGDECVYLYQPDERGPCFAFEGHKLIAHWFRGYLIIVSRDRKVSPKSEFTSRDSQSSDKQILNIYDLCNKFIAYSTVFEDVVDVLAEWGSLYVLTRDGRVHALQEKDTQTKLEMLFKKNLFEMAINLAKSQHLDSDGLAQIFMQYGDHLYSKGNHDGAVQQYIRTIGKLEPSYVIRKFLDAQRIHNLTAYLQTLHRQSLANADHTTLLLNCYTKLKDSSKLEEFIKKKSESEVHFDVETAIKVLRQAGYYSHALYLAENHAHHEWYLKIQLEDIKNYQEALRYIGKLPFEQAESNMKRYGKILMHHIPEQTTQLLKGLCTDYRPSLEGRSDREAPGCRANSEEFIPIFANNPRELKAFLEHMSEVQPDSPQGIYDTLLELRLQNWAHEKDPQVKEKLHAEAISLLKSGRFCDVFDKALVLCQMHDFQDGVLYLYEQGKLFQQIMHYHMQHEQYRQVISVCERHGEQDPSLWEQALSYFARKEEDCKEYVAAVLKHIENKNLMPPLLVVQTLAHNSTATLSVIRDYLVQKLQKQSQQIAQDELRVRRYREETTRIRQEIQELKASPKIFQKTKCSICNSALELPSVHFLCGHSFHQHCFESYSESDADCPTCLPENRKVMDMIRAQEQKRDLHDQFQHQLKCSNDSFSVIADYFGRGVFNKLTLLTDPPTARLTSSLEAGLQRDLLMHSRRGT
As to B1, the binding entry is on record as “binds”.
